Source: US20100240683A1, “COMBINATION THERAPY, COMPOSITION AND METHODS FOR THE TREATMENT OF CARDIOVASCULAR DISORDERS” (Syndromex Ltd., priority 2007, published 2010)
At least one compound was matched to its structure with a doubt left.

System: Guinea pigs
Assay: Hypolipidemic effect in Guinea pigs model (plasma TG, cholesterol, lipoproteins)
Type: in vivo, Guinea pig
Settings: gavage, days 21 and 22, result in words
Experimental: • Guinea pigs (400-500 g) were obtained from Harlan (Israel) or Harlan (Netherlands). Animals were treated by gavage with Medica 16αα, Medica 16ββ and Simvastatin as indicated in 1% CMC for the specified treatment periods. During treatment period the animals were weighed and observed daily.
Non-fasted guinea pigs were anesthetized with ketamine (75 mg/kg body weight) and xylazine (6 mg/kg body weight), followed by S.C. abdominal injections of 2% lignocaine. Anesthetized animals were bled into tubes containing EDTA. Plasma chylomicrons were removed by centrifugation (20 min, 30K rpm, TST 55.5 rotor). Plasma TG was assayed by Roche/Hitachi kit. Plasma cholesterol was assayed by Roche Diagnostic's kit.
Chylomicrons-free plasma was subjected to continuous KBr-gradient centrifugation (24 h, 40K rpm, SW41 rotor), followed by fractionating gradient tubes into 0.5 ml fractions. TG, cholesterol and protein of each fraction were measured as described above. […]
Guinea pigs were treated by gavage with M16αα, M16ββ or with Simvastatin, weighed and observed daily. Plasma triglycerides (TG) and cholesterol, as well as plasma lipoproteins and their composition were examined on days 21 and 22 (as specified in the following tables) of the experiments, as described in Experimental procedures. As clearly shown by Table 3 and FIG. 1, treatment with M16αα decreases plasma triglycerides (TG).

Question: For `CCC(C)(C)C(=O)O[C@H]1C[C@@H](C)C=C2C=C[C@H](C)[C@H](CC[C@@H]3C[C@@H](O)CC(=O)O3)[C@H]21` [Simvastatin, reference compound], which “effect on plasma cholesterol” value is on record?
Answer: The value was “decrease”.

Question: And the “effect on plasma triglycerides (TG)” value?
Answer: Its value is “increase”.
